Values of other authors, collected in patent publication US10258574B2, “Method of preparing itraconazole preparation” (CHANGZHOU PHARMACEUTICAL FACTORY CO., LTD., priority 2015, dated 2019).
Read-outs that look alike come from different tables or passages of the source.

saturated solubility (aqueous solution at a neutral pH): < 1 ng/mL | saturated solubility (hydrochloric acid solution at pH=1): 6000 ng/mL
SMILES: CCC(C)n1ncn(-c2ccc(N3CCN(c4ccc(OCC5COC(Cn6cncn6)(c6ccc(Cl)cc6Cl)O5)cc4)CC3)cc2)c1=O (centres unmarked) [Itraconazole]
